This note sets out measurements from paper PMC5566117.

Results are given in words; binding and its absence hold for the method and conditions named. Binding seen in cells or lysates may run through a third protein. Some binding calls cover weakened binding; strength is not graded here. Where a sequence is shown, tags or fusion partners need not be part of it.

The target of assay [1] is T1, FLAG-tagged Pld6 (MitoPLD, phospholipase D family member 6) (mouse) (UniProt Q5SWZ9).
T1 sequence: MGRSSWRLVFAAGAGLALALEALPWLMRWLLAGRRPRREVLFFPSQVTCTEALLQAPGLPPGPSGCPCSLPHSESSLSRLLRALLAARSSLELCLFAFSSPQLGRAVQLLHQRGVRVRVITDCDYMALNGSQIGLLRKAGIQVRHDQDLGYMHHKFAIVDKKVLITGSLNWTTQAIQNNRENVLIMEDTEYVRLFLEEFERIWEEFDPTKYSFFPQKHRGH
In words: co-IP; HEK293T cells co-expressing FLAG-Pld6 with GST-tagged Gyk, Gykl1 or Gk2; lysis in IP buffer (50 mM Tris-HCl pH 8.0, 100 mM NaCl, 1 mM EDTA, 0.5% NP-40, 10% glycerol); anti-FLAG M2 affinity gel, 4 °C, 60 min; blotted with anti-GST and anti-FLAG.

The target in assay [2] is T1, FLAG-tagged Pld6 (MitoPLD, phospholipase D family member 6) (mouse). In words: pull-down; GST pull-down (Supplementary Figure S5A-C); constructs, bait and conditions not shown.

B1: GST-tagged Gk2 (glycerol kinase 2) (protein, UniProt Q9WU65 1-554)
chain: MAASKQTSAGPLVGAVVQGTNSTRFLVFNSKTAELVCSHQVELTQEYPKEGWVEQDPKEILKSVYECIAKACEKLAEVNIDISNIKAIGVSNQRETTVVWDKFTGDPLYNAVVWLDLRTQSTVETLTKKIPGNSNFVKSKTGLPLSTYFSAVKLRWMLDNLRPIQKAVEEGRAMFGTIDSWLIWCMTGGVNGGIHCTDVTNACRTMLFNIHSLEWDKDLCDFFEIPMSILPNVCSSSEIYGLMTSGALEGVPISGCLGDQSAALVGQMCFHEGQAKNTYGTGCFLLCNTGQKCVFSEHGLLTTLAYKLGKNKPVFYALEGSVAIAGAVIRWLRDNFEIITTSGEVENLAREVGTSYGCYFVPAFSGLYAPYWEPSARGIICGLTQFTNKCHIAFAALEAVCFQTREILDAMNRDCGIPLSHLQVDGGMTNNRILMQLQADILHIPVVKSVMPETTALGAAMAAGAAEGVNVWSLEPEDLSTILMERYEPQIQATESEIRFSTWKRAVMKSMGWVTAKDPENGDNPVFSCLPLGFFIVSSMTLLIGARCVSTAEE
As to B1, the binding result in assay [1] and in assay [2] was “binds” throughout.
